Results are given in words; binding and its absence hold for the method and conditions named. Some results given as binding are weak or reduced against the parent protein; the word gives no strength.
T1: Spy_(29-124) (UniProt P77754)
T1 sequence: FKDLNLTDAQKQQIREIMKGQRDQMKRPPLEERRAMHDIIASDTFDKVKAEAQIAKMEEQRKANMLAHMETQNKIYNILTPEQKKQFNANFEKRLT


Molecular target: T1, Spy_(29-124)
Experiment: NMR titration; 0.1 mM [15N]-Spy_(29-124) with unlabeled peptide at molar ratios 1:2 to 1:40; 2D 1H-15N HSQC; 40 mM HEPES-NaOH, 150 mM NaCl, pH 7.5, 25 °C; one-site binding model; both purified

| binding | Binder |
| --- | --- |
| binds weakly | ADTTTAAPADAKPMMHHKGKFGPHQKMM (peptide, UniProt P77754 24-51, looked up, Spy of E. coli, residues 1-28 with D26K) [Nt-pep D26K] |
| binds weakly | ADTTTAAPADAKPMMHHKGKFGPHQRMM (peptide, UniProt P77754 24-51, looked up, Spy of E. coli, residues 1-28 with D26R) [Nt-pep D26R] |
